{"source": "PubChem BioAssay AID1224830 (NIAID, 2016)", "screen": "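Regulators of TLR4 signalling towards TNF-alpha in macrophage-like cells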 (primary screen)", "cell system": "human THP-1 monocytic leukaemia cells, TNF dual-luciferase reporter clone, PMA-differentiated to macrophage-like cells", "knock-down reagent": "siRNA pool against human genes, 50 nM", "timing": "LPS for 4 h, given about 3 days after siRNA transfection", "conditions": "bacterial LPS (TLR4 ligand), 10 ng/ml", "measurement": "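TNF firefly reporter luminescence divided by renilla, normalised to the plate median, then turned into a robust z-score for each replicate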", "scale": "TNF reporter robust z-score: higher = stronger TNF reporter response to LPS", "rule for the call": "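a well is active when its z-score exceeds 2.8 or falls below -1.5; control wells carry no call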", "note": "Here is one part, drawn at random, of about 18,000 reagents. About 2,900 of them (16%) were called active. 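Calls are made per well; low scores hint the gene aids the LPS response, high scores that it dampens it.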 Repeated entries: four replicate wells of each siRNA pool."}
{"Gene": "CD84", "TNF reporter robust z-score": 2.22, "outcome": "inactive"}
{"Gene": "CD84", "TNF reporter robust z-score": 0.67, "outcome": "inactive"}
{"Gene": "CD84", "TNF reporter robust z-score": 0.43, "outcome": "inactive"}
{"Gene": "CD84", "TNF reporter robust z-score": -1.18, "outcome": "inactive"}
{"Gene": "AFMID", "TNF reporter robust z-score": 0.49, "outcome": "inactive"}
{"Gene": "AFMID", "TNF reporter robust z-score": -0.82, "outcome": "inactive"}
{"Gene": "AFMID", "TNF reporter robust z-score": -0.48, "outcome": "inactive"}
{"Gene": "AFMID", "TNF reporter robust z-score": -0.43, "outcome": "inactive"}
{"Gene": "ZNF611", "TNF reporter robust z-score": 1.05, "outcome": "inactive"}
{"Gene": "ZNF611", "TNF reporter robust z-score": -0.39, "outcome": "inactive"}
{"Gene": "ZNF611", "TNF reporter robust z-score": 0.53, "outcome": "inactive"}
{"Gene": "ZNF611", "TNF reporter robust z-score": 1.01, "outcome": "inactive"}
{"Gene": "ACTN4", "TNF reporter robust z-score": -0.3, "outcome": "inactive"}
{"Gene": "ACTN4", "TNF reporter robust z-score": 0.48, "outcome": "inactive"}
{"Gene": "ACTN4", "TNF reporter robust z-score": -0.16, "outcome": "inactive"}
{"Gene": "ACTN4", "TNF reporter robust z-score": 0.02, "outcome": "inactive"}
{"Gene": "RNFT1", "TNF reporter robust z-score": -1.32, "outcome": "inactive"}
{"Gene": "RNFT1", "TNF reporter robust z-score": 0, "outcome": "inactive"}
{"Gene": "RNFT1", "TNF reporter robust z-score": 0.35, "outcome": "inactive"}
{"Gene": "RNFT1", "TNF reporter robust z-score": -1.56, "outcome": "active"}
{"Gene": "EDC4", "TNF reporter robust z-score": -0.16, "outcome": "inactive"}
{"Gene": "EDC4", "TNF reporter robust z-score": 0.42, "outcome": "inactive"}
{"Gene": "EDC4", "TNF reporter robust z-score": 0.51, "outcome": "inactive"}
{"Gene": "EDC4", "TNF reporter robust z-score": -0.38, "outcome": "inactive"}
{"Gene": "PRKAR2B", "TNF reporter robust z-score": -0.08, "outcome": "inactive"}
{"Gene": "PRKAR2B", "TNF reporter robust z-score": -1.02, "outcome": "inactive"}
{"Gene": "PRKAR2B", "TNF reporter robust z-score": -0.95, "outcome": "inactive"}
{"Gene": "PRKAR2B", "TNF reporter robust z-score": -1.07, "outcome": "inactive"}
{"Gene": "MUC21", "TNF reporter robust z-score": -0.73, "outcome": "inactive"}
{"Gene": "MUC21", "TNF reporter robust z-score": -0.7, "outcome": "inactive"}
{"Gene": "MUC21", "TNF reporter robust z-score": -0.68, "outcome": "inactive"}
{"Gene": "MUC21", "TNF reporter robust z-score": 1.56, "outcome": "inactive"}
{"Gene": "BRPF1", "TNF reporter robust z-score": 0.68, "outcome": "inactive"}
{"Gene": "BRPF1", "TNF reporter robust z-score": 0.11, "outcome": "inactive"}
{"Gene": "BRPF1", "TNF reporter robust z-score": 1.16, "outcome": "inactive"}
{"Gene": "BRPF1", "TNF reporter robust z-score": 1.83, "outcome": "inactive"}
{"Gene": "GLCE", "TNF reporter robust z-score": -0.19, "outcome": "inactive"}
{"Gene": "GLCE", "TNF reporter robust z-score": 1.65, "outcome": "inactive"}
{"Gene": "GLCE", "TNF reporter robust z-score": -0.41, "outcome": "inactive"}
{"Gene": "GLCE", "TNF reporter robust z-score": 1.3, "outcome": "inactive"}
{"Gene": "CFC1B", "TNF reporter robust z-score": -1.5, "outcome": "inactive"}
{"Gene": "CFC1B", "TNF reporter robust z-score": -1.2, "outcome": "inactive"}
{"Gene": "CFC1B", "TNF reporter robust z-score": -1.04, "outcome": "inactive"}
{"Gene": "CFC1B", "TNF reporter robust z-score": -1.37, "outcome": "inactive"}
{"Gene": "LANCL1", "TNF reporter robust z-score": -0.26, "outcome": "inactive"}
{"Gene": "LANCL1", "TNF reporter robust z-score": 0, "outcome": "inactive"}
{"Gene": "LANCL1", "TNF reporter robust z-score": -0.32, "outcome": "inactive"}
{"Gene": "LANCL1", "TNF reporter robust z-score": -0.05, "outcome": "inactive"}

A portion taken from the entries so far:
{"Gene": "ACTN4", "TNF reporter robust z-score": 0.48, "outcome": "inactive"}
{"Gene": "ACTN4", "TNF reporter robust z-score": -0.16, "outcome": "inactive"}
{"Gene": "ACTN4", "TNF reporter robust z-score": 0.02, "outcome": "inactive"}
{"Gene": "RNFT1", "TNF reporter robust z-score": -1.32, "outcome": "inactive"}
